# Experimental data reported in the supplement of paper PMC4604168 (melanoma cell lines).
# The other results are listed elsewhere or left out. Single values are uncertain, as repeats are few or missing.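 The apoptosis fraction was the count of cleaved-PARP antibody-stained nuclei relative to all DNA-stained nuclei, imaged in 1,536-well plates. Screening doses were set so most cells survived, and baseline and induced cleaved-PARP levels vary greatly across cell lines.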
# Tests used:
# Assay in all cases: cleaved PARP positive nuclei fraction relative to DMSO control; melanoma cells; higher = more apoptosis
# Conditions in all cases: library dose: low library concentration; 72 h
# 501Mel = system: 501Mel
# A101D = system: A101D
# A2058 = system: A2058
# A375 = system: A375
# C32 = system: C32
# CBRC008 = system: CBRC008 (line from a melanoma biopsy)
# CBRC014 = system: CBRC014 (line from a melanoma biopsy)
# CBRC016 = system: CBRC016 (line from a melanoma biopsy)
# CBRC017 = system: CBRC017 (line from a melanoma biopsy)
Compound,cleaved PARP positive nuclei fraction (501Mel) [%],cleaved PARP positive nuclei fraction (A101D) [%],cleaved PARP positive nuclei fraction (A2058) [%],cleaved PARP positive nuclei fraction (A375) [%],cleaved PARP positive nuclei fraction (C32) [%],cleaved PARP positive nuclei fraction (CBRC008) [%],cleaved PARP positive nuclei fraction (CBRC014) [%],cleaved PARP positive nuclei fraction (CBRC016) [%],cleaved PARP positive nuclei fraction (CBRC017) [%]
"CCCCCCCCCCCCCCCCCCOP(=O)([O-])OC1CC[N+](C)(C)CC1 [Perifosine] + Nc1nc(F)nc2c1ncn2[C@@H]1O[C@H](CO)[C@@H](O)[C@@H]1O [fludarabine] (first compound 0.4 µM, partner dose 0.2 µM)",30800,30.6,114,4000,45.9,120,97.4,44.1,100
"Cc1ccc(Nc2nccc(N(C)c3ccc4c(C)n(C)nc4c3)n2)cc1S(N)(=O)=O [Pazopanib] + CS(=O)(=O)CCNCc1ccc(-c2ccc3ncnc(Nc4ccc(OCc5cccc(F)c5)c(Cl)c4)c3c2)o1 [lapatinib] (first compound 0.4 µM, partner dose 0.8 µM)",312,54.3,143,77.8,76.6,182,96.1,184,143
"CCCCCCCCCCCCCCCCCCOP(=O)([O-])OC1CC[N+](C)(C)CC1 [Perifosine] + O=c1[nH]nc(Sc2ncc([N+](=O)[O-])s2)n1-c1ccc2c(c1)OCCO2 [BI78D3] (first compound 0.4 µM, partner dose 0.2 µM)",59.2,31.5,37.2,164,143,88.6,110,67.7,93.6
"N#CC[C@H](C1CCCC1)n1cc(-c2ncnc3[nH]ccc23)cn1 [ruxolitinib] + COc1ccc(Cl)c(Nc2nc3ccccc3nc2NS(=O)(=O)c2cccc(NC(=O)C(C)(C)N)c2)c1 [XL147] (first compound 1 µM, partner dose 0.8 µM)",160,170,229,128,73.3,111,132,137,174
"Cc1ccc(Nc2nccc(N(C)c3ccc4c(C)n(C)nc4c3)n2)cc1S(N)(=O)=O [Pazopanib] + NC1(c2ccc(-c3nc4ccn5c(=O)[nH]nc5c4cc3-c3ccccc3)cc2)CCC1 [MK2206] (first compound 0.4 µM, partner dose 0.4 µM)",128,198,70.6,152,74.5,85.7,92.9,117,101
"Cc1cc(Nc2cc(N3CCN(C)CC3)nc(Sc3ccc(NC(=O)C4CC4)cc3)n2)n[nH]1 [Tozasertib] + Cn1c(Nc2ccc(C(F)(F)F)cc2)nc2cc(Oc3ccnc(-c4ncc(C(F)(F)F)[nH]4)c3)ccc21 [CHIR265] (first compound 0.006 µM, partner dose 0.08 µM)",337,67.4,297,555,26,238,116,254,114
"Cc1cc(Nc2cc(N3CCN(C)CC3)nc(Sc3ccc(NC(=O)C4CC4)cc3)n2)n[nH]1 [Tozasertib] + COc1ccc(Cl)c(Nc2nc3ccccc3nc2NS(=O)(=O)c2cccc(NC(=O)C(C)(C)N)c2)c1 [XL147] (first compound 0.006 µM, partner dose 0.8 µM)",90.6,91.8,134,71.7,192,163,123,77.8,115
"Cc1cn(-c2cc(NC(=O)c3ccc(C)c(Nc4nccc(-c5cccnc5)n4)c3)cc(C(F)(F)F)c2)cn1 [nilotinib] + Nc1cccc2c1CN(C1CCC(=O)NC1=O)C2=O [lenalidomide] (first compound 0.2 µM, partner dose 1 µM)",88.9,83.8,82.2,128,81.4,116,102,289,129
"CCCCCCCCCCCCCCCCCCOP(=O)([O-])OC1CC[N+](C)(C)CC1 [Perifosine] + CN1CCN(c2ccc3nc(-c4c(N)c5c(F)cccc5[nH]c4=O)[nH]c3c2)CC1 [Dovitinib] (first compound 0.4 µM, partner dose 0.1 µM)",112,271,97.7,208,72.5,62,76.8,153,88.3
"O=C(Nc1cc(C(F)(F)F)cc(C(F)(F)F)c1)c1cc(Cl)ccc1O + O=c1[nH]nc(Sc2ncc([N+](=O)[O-])s2)n1-c1ccc2c(c1)OCCO2 [BI78D3] (first compound 0.016 µM, partner dose 0.2 µM)",135,42.2,90,105,40.1,178,110,137,100
"O=c1[nH]nc(Sc2ncc([N+](=O)[O-])s2)n1-c1ccc2c(c1)OCCO2 + C=CCNC1=C2C[C@@H](C)C[C@H](OC)[C@H](O)[C@@H](C)/C=C(\C)[C@H](OC(N)=O)[C@@H](OC)/C=C\C=C(/C)C(=O)NC(=CC1=O)C2=O [Tanespimycin] (first compound 0.2 µM, partner dose 0.002 µM)",88.1,198,126,88.8,185,334,178,86.2,118
